Data taken from PubChem BioAssay AID1347423 (Functional Genomics Laboratory (NCATS/FGL), 2020).
About 210 (0.4%) of roughly 52,000 sequences were called active.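 The calls were made as follows: active = gene whose silencing raises cell survival under the drug, median off-target-corrected z-score across its silencing RNAs 2 or more; inactive = the rest.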 The list shows a part of the results.

Test: Resistance to Poly (ADP-Ribose) Polymerase inhibitor: Gene Identification via Genome-wide siRNA Screen
Details: mouse BRCA2 R2336H ES cells, olaparib, CellTiter-Glo viability; stronger effect = higher value
Procedure, shortened: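 Genome-wide siRNA screen (3 siRNAs/gene, 20 nM) in mouse ES cells carrying hypomorphic BRCA2 R2336H; olaparib 500 nM added 48 h post-transfection, CellTiter-Glo viability 72 h later. Normalized to plate-median negative control; MAD z-scores, gene median, seed-adjusted.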

Sequence	z-score
GCUAUACUAUUGAAGAAAGTT against Ttrap	inactive: -0.694
GCAGCAGCAAAUGUUCUAUTT against Olfr386	inactive: 0.586
GGUCACUUCACCCUUUGUATT against Gng5	inactive: -0.705
GGUCCUCUAAAGAAUAAAGTT against Ela3b	active: 0.513
GGACUUUUACCUCCUAAAATT against Me2	inactive: 1.69
GGACCAUAUUCCAGACCAGTT against A730011L01Rik	inactive: -0.211
GGAGUUAAUGAUUCAUUGCTT against Ripk3	inactive: -0.814
GGGUUCAAUGUGAUACACATT against Stard6	inactive: -1.19
GGAUCAUUUGAAAUUGCUGTT against Atp5s	inactive: -1.11
GCUAGUGACUUUGAGAUUGTT against Msh5	inactive: 0.165
GGUGCAGAUCCCAAAUCUGTT against 2610312B22Rik	inactive: 0.402
GGUGAUCACAAAUAUGAUGTT against 3110003A22Rik	inactive: -0.731
GGACUAAGCAUUUGUAUCUTT against 3110082I17Rik	inactive: 1.43
CGAAGGUCGUUAUUAUAAUTT against 5031439A09Rik	inactive: 2.27
GGAACAUAUUUAUUGGUGATT against 9330161F08Rik	inactive: 1.21
GGUCUAAAAGGGCUCCUUATT against Cxcl10	inactive: -1.32
GGUGUCUACGAAAUUCAAATT against Exosc9	inactive: 0.189
GGAAAUCAACAACUGUAGCTT against Tas1r2	inactive: 0.446
CCGACUUGGUGGAGUAUAGTT against Ddost	inactive: 0.302
GGGACACAAUUCUUUGAAATT against G630009D10Rik	inactive: 0.375
GCCACCUAGUACUCAACUATT against Baz2a	inactive: -2.7
GGAUGUUUGUGGAUGUGGUTT against Tbx21	inactive: -0.48
GGUGGCCAAGAAUGUGAAUTT against BC024561	inactive: 0.0114
GGCUUUUUGCUUCACUACUTT against Slco4c1	inactive: 1.12
CCUUCUUUUGAGAACAGAATT against Nsd1	inactive: -0.313
GGUCUUACUGUUUGUGAUATT against Olfr1295	inactive: 0.335

Sequence	z-score
GGCACUCUUGUUGAAAUUCTT against H6pd	inactive: 1.35
GGAACAUGAAGCCUUUUACTT against Asb16	active: 3.12
GGAUAAUUCACUGUCGCUUTT against Cyp2c37	inactive: 0.605
GGGAAACCUGAACUAACAGTT against Pcdha5	inactive: -0.0304
GCUUAAUGCCUUGAAACGATT against Tsg101	inactive: -0.442
GGAGAAACAGAAGUAUUGATT against 5730427N09Rik	inactive: -1.18
CCAAAAAUACUUCUCCUUCTT against Gata6	inactive: 0.325
GUGAUGGUUGGGCUUCUCATT against Olfr1450	inactive: -0.738
GGCUAUUUAUAGUUGUCGGTT against Unc119	inactive: -0.441
GGUCUGUUCCGUAUGAAGCTT against Ube2s	inactive: -0.597
GGAGGAAUACCAGGAAUACTT against Sncb	inactive: -1.99
CGAUAACAUGUUGAAAAACTT against Kctd10	inactive: 1.44
GGAAGUGGCCACAUGUGAATT against E230025N22	inactive: 0.86
CGAUGAAGAUUGUAACUAGTT against 4930555G01Rik	inactive: 1.17
GGUGUAGAUAAGAACUAUGTT against Odf1	inactive: 1.91
GCUGGUUGUGUUAAAAUGCTT against Cyp4a14	inactive: 1.35
ACUGUAUGAAGAGGAAACATT against Krt2-25	inactive: 0.824
CCACGACACGCAAGAUGAGTT against Fzd8	inactive: 1.34
GGAAUUGAGCAGGAAGAGGTT against Stx1b1	inactive: 0.353
GGUCACUCCCACUUCGUUATT against Gnb2-rs1	inactive: -0.269
GGAAGAAGAUCAAGGAGAUTT against Fer1l3	inactive: -0.222
GGACAUCCAGUAUUUUGUGTT against Pstpip2	inactive: -0.0609
CCAUAUGUCCUGUUUAAGATT against Grik2	inactive: 0.699
CCCUGUUCCAAUCCGGUUCTT against LOC280621	inactive: 2.18
CCAGUGACGGUGUGAUCUUTT against LOC541307	inactive: -2.79
GCCUCAAGCCUACCAUGUUTT against Fadd	inactive: -1.43

5 entries from above in another layout.
Sequence | z-score
GCUUAAUGCCUUGAAACGATT against Tsg101 | inactive: -0.442
GGAAGUGGCCACAUGUGAATT against E230025N22 | inactive: 0.86
GCUGGUUGUGUUAAAAUGCTT against Cyp4a14 | inactive: 1.35
CCACGACACGCAAGAUGAGTT against Fzd8 | inactive: 1.34
CCAUAUGUCCUGUUUAAGATT against Grik2 | inactive: 0.699

More records follow:

Sequence	z-score
GUCACUGAUACUCAAUAAATT against V1rd9	inactive: 0.508
GGGCUGUCAUUAUAGUCCATT against Unc93a	inactive: -0.33
GGCUGUGCCAAUUUAAUUUTT against 1700022L09Rik	inactive: 2.66
GGGCAUAUGAUAAUCAUACTT against Carkl	inactive: 1.14
CCAACUUCAAAACUAUCGUTT against Trp53bp1	active: 1.96
CCCUUAUUGAUUCUUCAAGTT against Ngp	inactive: 1.35
GGAGUUGGUGAAGCAGCUUTT against Arhgap25	inactive: -1.91
GGCUAAAUUUGAAGAUGAUTT against 1500015O10Rik	inactive: 0.734
GGUCCUACCUUGAAGCUCCTT against Gm237	inactive: 0.46
GCGAACGAAGCAUAAAUGGTT against Mettl1	inactive: -0.126
GGAGUGUGAGGUCCUCUCUTT against Sdsl	inactive: 0.644
GGGUUCUGUUACAAUUCCATT against Defb11	inactive: -0.0203
CGGGAUAUAUUCUCAGACUTT against 9130416B15	inactive: -0.67
GCGUGUAGGAAUAAUACCUTT against Psmc6	inactive: -3.13
GGGUAUAACUGUCAAACAGTT against C530046L02Rik	inactive: 1.42
CCGUAGAGAUCAACAACACTT against Npepl1	inactive: 0.338
GGCAAUCCAGGCAAUAUCATT against C1qa	inactive: -0.924
CGAGUUGCUCGUGUUCAGUTT against Ndufa1	inactive: -0.877
GGAGCUGGUCAAGAACUACTT against Chrna7	inactive: 0.594
CCCUAAGCUCUGUUCCCAGTT against Olfr371	inactive: -0.926
GCAUGAAGUUAGUAAUGCUTT against C230029F24Rik	inactive: -0.491
GGCCUUAGGAAUCAAGUUGTT against 9530053A07Rik	inactive: 0.596
GGGAUAUUGGAGCAAAAAATT against BC021875	inactive: 0.489
GGUUGUAUGUUGUGUGUUUTT against 0910001A06Rik	inactive: 0.869
GGCGACUGUGCAAUUUCAUTT against Ceacam1	inactive: -0.7
GGCCAACAAUUUGUCUGUCTT against Tgn	inactive: -0.346

Shown as labelled records: part of the list above.
GGUGUCUACGAAAUUCAAATT against Exosc9
  z-score: inactive: 0.189
GGAAAUCAACAACUGUAGCTT against Tas1r2
  z-score: inactive: 0.446

More records follow:

Sequence	z-score
GGAAGACUUUCUGGACAUATT against Sgk2	inactive: 0.152
GGACUUUAAGCCAUUACGATT against Cltb	inactive: -0.328
GGGCUGAUAAUGUUAGCUCTT against Olfr161	inactive: -1.23
GGCAAGCACAAUGAUCAUUTT against D030016E14Rik	inactive: -2.36
CGUGAACUAUGAUUGGAUATT against Gbe1	inactive: 0.76
GCCAAGUACUCGUUUCCACTT against Wtap	inactive: 0.441
GGAAAUGCCAGGAUGGAUCTT against AF366264	inactive: 0.622
GGAGAAACUUCAACUCUUATT against Resp18	inactive: 0.73
GGAUCUCAUAAAGGAGGCUTT against Prkg1	inactive: -0.485
CCAGAGCUAAAAGAAAAGATT against Elovl6	inactive: 0.473
GGGAAUGUUUUCAAAUUCCTT against 9030616D13Rik	inactive: -0.923
CGCAUAUCAGCAGUGUAGATT against Slc26a11	inactive: -0.279
GGAGAAGCAGAAGAUGUAUTT against Stk11	inactive: 0.322
CCUGUAAUGCACUCUCCUATT against Skiip	inactive: -1.86
GGGAACCUUUUCUAAGUUCTT against 9230112E08Rik	inactive: 0.812
CCGGUCAAAAUUGAAAAGGTT against Bves	inactive: 0.357
GGGUGUCUAUGAUUCUACATT against Add1	inactive: -0.458
GGUUCAAAGUUCUAGCUAATT against Adss2	inactive: -1.96
GGCAUAACUGAUCAUACGCTT against Foxp3	inactive: 1.06
GGUAUUGGAAAGUAGAAACTT against MGC30332	inactive: 0.688
GCUGUAAUUCCUAAGUUAUTT against Ubxd1	inactive: 0.0518
GGAAGAUGAGGACACCAUGTT against 2610027C15Rik	inactive: -0.324
GCGCAUUCUGAUAUUUUCUTT against E330009J07Rik	inactive: 0.46
GGUAUUUUGAUGUUGGACUTT against 2810432O22Rik	inactive: 0.227
GGUUUAGAACUGGUAGAGCTT against Asgr1	inactive: 1.43
GGAAGUCAAGUACUGUAGCTT against Usp16	inactive: -0.604

A second format for part of the listing above.
Sequence | z-score
GCGCAUUCUGAUAUUUUCUTT against E330009J07Rik | inactive: 0.46
GGUAUUUUGAUGUUGGACUTT against 2810432O22Rik | inactive: 0.227
